Measurements published in article PMC3646995.
These are yes or no findings as the source states them, for the method shown. For part of these data: A result given as binding can be weak or reduced; the word gives no strength.

Sequences of proteins named here, by UniProt entry; tags and fusion partners are left off.
UniProt Q92831: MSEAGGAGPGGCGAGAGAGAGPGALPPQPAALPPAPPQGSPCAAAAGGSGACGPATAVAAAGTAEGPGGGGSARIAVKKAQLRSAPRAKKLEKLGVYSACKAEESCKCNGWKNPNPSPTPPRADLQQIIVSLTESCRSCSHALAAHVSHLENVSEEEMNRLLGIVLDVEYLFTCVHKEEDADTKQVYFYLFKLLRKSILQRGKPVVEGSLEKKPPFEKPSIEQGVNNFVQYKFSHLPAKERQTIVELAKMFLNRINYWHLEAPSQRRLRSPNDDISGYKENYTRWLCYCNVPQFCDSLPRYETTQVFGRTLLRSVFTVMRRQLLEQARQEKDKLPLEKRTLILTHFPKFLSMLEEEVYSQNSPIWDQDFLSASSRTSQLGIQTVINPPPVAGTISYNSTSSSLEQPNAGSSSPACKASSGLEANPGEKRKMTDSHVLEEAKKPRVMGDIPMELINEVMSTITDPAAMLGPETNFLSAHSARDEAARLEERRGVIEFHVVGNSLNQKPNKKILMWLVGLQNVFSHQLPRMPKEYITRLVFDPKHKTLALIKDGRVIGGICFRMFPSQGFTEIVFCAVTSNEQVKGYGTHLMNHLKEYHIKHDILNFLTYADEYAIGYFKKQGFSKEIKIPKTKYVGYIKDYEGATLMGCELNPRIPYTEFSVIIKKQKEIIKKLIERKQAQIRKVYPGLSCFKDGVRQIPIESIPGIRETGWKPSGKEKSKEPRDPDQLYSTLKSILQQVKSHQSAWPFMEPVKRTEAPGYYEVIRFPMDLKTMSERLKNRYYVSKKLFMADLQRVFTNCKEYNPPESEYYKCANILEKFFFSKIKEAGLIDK
UniProt P25440: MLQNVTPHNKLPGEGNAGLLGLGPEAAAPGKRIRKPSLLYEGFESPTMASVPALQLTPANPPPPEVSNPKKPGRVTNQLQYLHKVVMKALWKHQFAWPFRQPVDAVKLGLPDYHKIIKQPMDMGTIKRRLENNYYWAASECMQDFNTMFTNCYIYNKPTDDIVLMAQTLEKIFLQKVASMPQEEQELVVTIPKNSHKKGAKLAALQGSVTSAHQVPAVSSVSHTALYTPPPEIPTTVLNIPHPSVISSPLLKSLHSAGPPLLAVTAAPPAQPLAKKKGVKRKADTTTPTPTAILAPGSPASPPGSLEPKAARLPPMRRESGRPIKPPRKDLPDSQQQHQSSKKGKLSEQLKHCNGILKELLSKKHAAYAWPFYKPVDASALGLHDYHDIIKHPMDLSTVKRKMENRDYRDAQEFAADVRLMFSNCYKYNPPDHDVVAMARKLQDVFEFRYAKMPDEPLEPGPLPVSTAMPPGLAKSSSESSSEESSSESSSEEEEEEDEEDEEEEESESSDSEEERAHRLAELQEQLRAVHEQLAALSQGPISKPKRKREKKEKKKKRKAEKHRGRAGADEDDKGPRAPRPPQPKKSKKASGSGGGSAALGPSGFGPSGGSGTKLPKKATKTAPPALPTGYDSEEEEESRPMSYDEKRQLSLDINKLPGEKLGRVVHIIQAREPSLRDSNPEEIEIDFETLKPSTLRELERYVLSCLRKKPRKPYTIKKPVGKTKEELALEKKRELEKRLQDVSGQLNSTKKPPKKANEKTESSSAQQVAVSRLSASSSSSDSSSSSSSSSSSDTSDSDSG
UniProt P51532: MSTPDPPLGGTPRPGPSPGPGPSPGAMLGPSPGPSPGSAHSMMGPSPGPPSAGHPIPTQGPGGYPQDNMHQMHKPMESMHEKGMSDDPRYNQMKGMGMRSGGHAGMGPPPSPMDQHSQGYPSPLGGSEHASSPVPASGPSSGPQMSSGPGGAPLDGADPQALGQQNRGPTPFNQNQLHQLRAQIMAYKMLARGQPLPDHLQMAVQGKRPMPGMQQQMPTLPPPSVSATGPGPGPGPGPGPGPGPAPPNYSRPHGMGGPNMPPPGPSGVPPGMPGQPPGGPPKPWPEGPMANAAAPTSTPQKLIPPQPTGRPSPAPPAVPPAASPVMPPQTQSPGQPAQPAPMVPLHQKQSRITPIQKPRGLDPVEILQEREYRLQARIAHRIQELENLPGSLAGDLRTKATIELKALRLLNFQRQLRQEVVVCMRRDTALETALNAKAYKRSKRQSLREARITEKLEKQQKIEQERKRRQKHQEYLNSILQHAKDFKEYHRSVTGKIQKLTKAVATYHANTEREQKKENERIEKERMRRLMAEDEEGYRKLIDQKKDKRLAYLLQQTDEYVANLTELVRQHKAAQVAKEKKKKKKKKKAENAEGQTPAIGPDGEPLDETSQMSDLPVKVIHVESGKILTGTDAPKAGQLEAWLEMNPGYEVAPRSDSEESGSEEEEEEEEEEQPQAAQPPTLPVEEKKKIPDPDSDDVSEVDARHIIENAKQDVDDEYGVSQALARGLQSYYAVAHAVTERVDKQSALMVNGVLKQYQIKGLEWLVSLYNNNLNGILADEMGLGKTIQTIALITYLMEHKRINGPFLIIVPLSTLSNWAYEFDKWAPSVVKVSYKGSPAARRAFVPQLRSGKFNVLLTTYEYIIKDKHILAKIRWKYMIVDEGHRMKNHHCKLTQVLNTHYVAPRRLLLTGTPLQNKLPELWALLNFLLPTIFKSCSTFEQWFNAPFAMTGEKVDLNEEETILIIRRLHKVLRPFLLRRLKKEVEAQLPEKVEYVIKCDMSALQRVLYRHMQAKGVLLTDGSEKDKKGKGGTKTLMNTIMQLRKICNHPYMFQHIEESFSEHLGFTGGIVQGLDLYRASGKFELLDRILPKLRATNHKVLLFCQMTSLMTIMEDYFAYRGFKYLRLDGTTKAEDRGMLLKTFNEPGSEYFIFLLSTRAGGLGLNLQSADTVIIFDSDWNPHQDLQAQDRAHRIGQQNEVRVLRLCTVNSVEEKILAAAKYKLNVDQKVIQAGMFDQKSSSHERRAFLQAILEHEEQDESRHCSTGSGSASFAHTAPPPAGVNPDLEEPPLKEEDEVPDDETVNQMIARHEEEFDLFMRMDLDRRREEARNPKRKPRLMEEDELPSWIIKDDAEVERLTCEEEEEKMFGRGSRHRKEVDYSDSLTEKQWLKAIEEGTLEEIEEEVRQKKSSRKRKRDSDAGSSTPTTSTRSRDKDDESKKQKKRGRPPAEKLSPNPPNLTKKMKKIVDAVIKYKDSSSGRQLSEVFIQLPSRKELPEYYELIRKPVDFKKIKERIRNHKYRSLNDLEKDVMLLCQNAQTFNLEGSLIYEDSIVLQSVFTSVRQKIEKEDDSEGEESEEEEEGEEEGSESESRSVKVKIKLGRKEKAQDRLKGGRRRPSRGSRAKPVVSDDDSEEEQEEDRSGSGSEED
UniProt O60264: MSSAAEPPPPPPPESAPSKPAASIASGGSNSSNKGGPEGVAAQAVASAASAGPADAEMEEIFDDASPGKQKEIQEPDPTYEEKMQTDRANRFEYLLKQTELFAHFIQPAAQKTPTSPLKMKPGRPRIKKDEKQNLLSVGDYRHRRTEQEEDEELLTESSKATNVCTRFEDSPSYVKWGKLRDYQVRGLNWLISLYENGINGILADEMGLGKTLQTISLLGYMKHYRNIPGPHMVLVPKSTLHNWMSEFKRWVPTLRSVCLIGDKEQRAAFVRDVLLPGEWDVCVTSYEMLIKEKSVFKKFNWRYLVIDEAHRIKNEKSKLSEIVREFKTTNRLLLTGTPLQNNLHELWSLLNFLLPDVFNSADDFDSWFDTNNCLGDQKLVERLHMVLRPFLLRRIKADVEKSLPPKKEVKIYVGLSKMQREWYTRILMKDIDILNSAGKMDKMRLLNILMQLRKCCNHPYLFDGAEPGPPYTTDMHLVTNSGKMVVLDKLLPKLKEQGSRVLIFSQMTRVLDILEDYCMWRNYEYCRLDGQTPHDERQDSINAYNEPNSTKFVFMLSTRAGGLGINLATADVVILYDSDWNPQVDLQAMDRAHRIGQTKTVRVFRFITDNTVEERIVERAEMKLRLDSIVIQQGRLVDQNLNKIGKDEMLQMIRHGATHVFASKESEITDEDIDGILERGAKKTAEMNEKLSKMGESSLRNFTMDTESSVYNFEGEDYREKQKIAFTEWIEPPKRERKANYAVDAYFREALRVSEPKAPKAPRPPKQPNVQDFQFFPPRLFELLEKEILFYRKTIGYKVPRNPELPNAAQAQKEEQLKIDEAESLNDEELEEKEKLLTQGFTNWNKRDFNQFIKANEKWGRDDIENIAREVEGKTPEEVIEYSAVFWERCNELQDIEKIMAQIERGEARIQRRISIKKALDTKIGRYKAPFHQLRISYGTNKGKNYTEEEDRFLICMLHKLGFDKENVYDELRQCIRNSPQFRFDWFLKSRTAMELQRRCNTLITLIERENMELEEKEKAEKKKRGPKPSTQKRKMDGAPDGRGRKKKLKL
UniProt Q92830: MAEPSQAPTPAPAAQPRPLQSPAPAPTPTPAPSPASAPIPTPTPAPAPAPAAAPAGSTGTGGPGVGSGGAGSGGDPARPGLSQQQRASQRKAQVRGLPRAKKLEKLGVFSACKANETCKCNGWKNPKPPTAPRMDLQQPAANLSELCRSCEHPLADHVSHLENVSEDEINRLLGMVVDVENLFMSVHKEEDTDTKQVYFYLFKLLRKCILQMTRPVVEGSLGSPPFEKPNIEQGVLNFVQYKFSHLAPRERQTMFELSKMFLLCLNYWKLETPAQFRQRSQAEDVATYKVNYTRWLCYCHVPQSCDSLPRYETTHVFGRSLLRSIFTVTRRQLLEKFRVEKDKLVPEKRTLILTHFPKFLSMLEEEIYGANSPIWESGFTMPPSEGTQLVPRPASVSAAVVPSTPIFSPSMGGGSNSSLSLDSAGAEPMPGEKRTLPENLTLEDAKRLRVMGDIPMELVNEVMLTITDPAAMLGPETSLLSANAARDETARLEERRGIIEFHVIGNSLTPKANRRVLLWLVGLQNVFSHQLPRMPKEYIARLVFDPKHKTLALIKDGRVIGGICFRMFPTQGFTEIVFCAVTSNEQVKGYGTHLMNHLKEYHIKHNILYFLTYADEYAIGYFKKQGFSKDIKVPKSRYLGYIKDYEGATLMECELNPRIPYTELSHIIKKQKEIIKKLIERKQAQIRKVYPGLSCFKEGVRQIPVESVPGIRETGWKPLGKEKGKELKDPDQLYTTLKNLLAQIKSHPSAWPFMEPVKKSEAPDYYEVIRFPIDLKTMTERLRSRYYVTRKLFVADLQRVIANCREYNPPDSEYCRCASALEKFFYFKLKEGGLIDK

Key:
Test in all cases: recruitment to a LacO array by a LacR fusion (confocal fluorescence microscopy); A03-1 cells (256xLacO arrays) co-transfected with an mCherry-LacR fusion, held on the array, and a GFP- or YFP-tagged protein; green fluorescence overlapping with the red array scored; more than 20 cells in each combination, three independent experiments
[1] = target: mCherry-LacR-saLANA (p3xFLAG-mCherry-LacR-saLANA1) (Saimirine herpesvirus 2 (Herpesvirus saimiri)) (UniProt Q80AG4)
[2] = target: mCherry-LacR-baEBNA1 (p3xFLAG-CMV10.0-mCherry-LacR-baEBNA1) (Cercopithecine herpesvirus 12 (Herpesvirus papio)) (UniProt Q80890)
[3] = target: mCherry-LacR-muLANA (p3xFLAG-CMV10-mCherry-LacR-muLANA1) (Murid herpesvirus 4 (MHV68)) (UniProt O41974)
[4] = target: mCherry-LacR-mnR2-LANA (p3xFLAG-CMV10-mCherry-LacR-mnR2-LANA1) (Macaca nemestrina rhadinovirus 2) (UniProt A1XYW0)

YFP-tagged pCAF (from UniProt Q92831 1-832)
binding [1]: no binding | binding [2]: no binding | binding [3]: no binding

YFP-tagged BRD2 (from UniProt P25440 1-801)
binding [1]: binds | binding [2]: no binding | binding [3]: binds | binding [4]: binds

GFP-CHD4 (from UniProt Q14839 1-1912)
binding [1]: no binding | binding [2]: no binding | binding [3]: no binding | binding [4]: no binding

YFP-tagged p300 (from UniProt Q09472 1-2414)
binding [1]: no binding | binding [2]: no binding | binding [3]: no binding | binding [4]: no binding

YFP-BRG1 (from UniProt P51532 1-1647)
binding [1]: no binding | binding [2]: no binding | binding [3]: no binding | binding [4]: no binding

SNF2H-GFP (from UniProt O60264 1-1052)
binding [1]: no binding | binding [2]: no binding | binding [3]: no binding | binding [4]: no binding

YFP-tagged GCN5 (from UniProt Q92830 1-837)
binding [1]: no binding | binding [2]: no binding | binding [3]: no binding | binding [4]: no binding
